At least one compound was matched to its structure with a doubt left.
System: Tet-CN279 mutant mice
Test: Spatial version of the Barnes maze, Tet-CN279 mice on or off doxycycline
Type: in vivo, mouse
Details: transgene repressed by doxycycline

In the case of `C[C@H]1c2cccc(O)c2C(=O)C2=C(O)[C@]3(O)C(=O)C(C(N)=O)=C(O)[C@@H](N(C)C)[C@@H]3[C@@H](O)[C@@H]21` [doxycycline], the “spatial memory defect on the Barnes maze” value is reported as “reversed”.
